At least one structure is not confirmed: it was looked up by name or label, or the drawing left a doubt.
Test system: melanin content in B16-F10 cells
Experiment: Melanin content in B16-F10 cells with ERK and AKT pathway inhibitors
Assay type: cell-based
Conditions: inhibitor added
Source text: The mechanism of inhibition of melanogenesis by nicotinyl hydroxamic acid in B16-F10 cells is further described as follows. ERK and AKT/[…] pathways participate in melanogenesis. PD98059, a MEK selective inhibitor, inhibits the activity of ERK (ERK is activated by MEK). LY294002, a phosphatidylinositol 3-kinase (PI3K) inhibitor, blocks the AKT/PKB pathway. The two inhibitors are used to determine the participation of nicotinyl hydroxamic acid in the ERK and AKT/PKA pathways. […] However, when nicotinyl hydroxamic acid is simultaneously added, the inhibition of melanin thereby is reduced by PD98059 and LY294002.

In the case of O=c1cc(N2CCOCC2)oc2c(-c3ccccc3)cccc12 [LY294002], the “effect on melanin content in cells” value is reported as “increases melanin content”.
